Results are given in words; binding and its absence hold for the method and conditions named. Binding can be weak; no strength is given. Sequences can lack the tags named with a protein.
Target: B. cenocepacia FtsZ, protein of the sedimentation assays (Burkholderia cenocepacia)
Assay: co-sedimentation; 25 mM PIPES pH 6.8, 10 mM MgCl2, 12 uM FtsZ, 12 uM ZipA or SulA, 2 mM GTP; 10 min 30 C; 350,000 x g 10 min 25 C; SDS-PAGE of pellet and supernatant; both purified

B1: putative SulA (pBCA006) of B. cenocepacia J2315, BACTH hybrid (natural protein, Burkholderia cenocepacia J2315, UniProt B4EQP0 1-238, looked up)
chain: MHPALAHPEAIHPALWRASQLARPSVRGVDTGHLELTAELPGGGWPAGALIELLAPQPGIGELRLLAPVLARTAGKPVMLIQPPHALQPLALAYWGIDPSGFVTLPAPRTADALWAAEQALRAGTCAAVLLWQSHVRADALRRLNLAAQSGQALFYLFRPVAAARDASPAPLRLALAPKRDGIDVTFLKRRGPARDTPLFVPLSPSPILLNRHASLDRRASAAPQPRSVPATIAGAVA
notes: putative SulA, product of gene pBCA006 of Burkholderia cenocepacia J2315; Cloned in all four BACTH vectors; source: bacterial two-hybrid (BACTH) fusion, E. coli BTH101
**Q.** How did the binding turn out when B1 was run?
**A.** binds
